PubChem BioAssay AID1259425 – University of Nebraska Medical Center – 2018

- Test: 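Find knockdowns that reproduce the gene expression pattern seen when KSR1 is lost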 (primary screen)
- Cell system: HCT116 human colon cancer cells
- Reagent: siRNA pool against human genes, 50 nM siRNA
- Detection: 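After 50 nM siRNA pool, branched-DNA assay measures six marker transcripts per well, minus blank, normalised to the geometric mean of two housekeeping transcripts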
- Scale: BNIP3L mRNA: higher = more BNIP3L transcript after knockdown; NDRG1 mRNA: higher = more NDRG1 transcript after knockdown; BNIP3 mRNA: higher = more BNIP3 transcript after knockdown; ALDOC mRNA: higher = more ALDOC transcript after knockdown; ACSL5 mRNA: higher = more ACSL5 transcript after knockdown
This is an unselected part of about 14,000 reagents tested. The record does not give: the time to read-out.

no.	target	BNIP3L mRNA, set 1	NDRG1 mRNA, set 1	BNIP3 mRNA, set 1	ALDOC mRNA, set 1	ACSL5 mRNA, set 1
1	ELF1 (E74 like ETS transcription factor 1)	0.0731	0.0632	0.292	0.00932	0.097
2	HELLS (helicase, lymphoid specific)	0.126	0.195	0.362	0.0246	0.209
3	TH (tyrosine hydroxylase)	0.149	0.144	0.268	0.0314	0.13
4	RBP2 (retinol binding protein 2)	0.162	0.213	0.284	0.0626	0.171
5	ARMC2 (armadillo repeat containing 2)	0.307	0.166	0.393	0.113	0.335
6	S100A11 (S100 calcium binding protein A11)	0.111	0.501	0.331	0.0505	0.173
7	LPXN (leupaxin)	0.0618	0.193	0.266	0.0092	0.177
8	TPD52L1 (TPD52 like 1)	0.11	0.0402	0.218	0.019	0.0864
9	NPAP1 (nuclear pore associated protein 1)	0.0992	0.356	0.506	0.0147	0.156
10	FAH (fumarylacetoacetate hydrolase)	0.289	0.301	0.358	0.00641	0.338
11	NANOG (Nanog homeobox)	0.342	0.108	0.483	0.0324	0.356
12	ACD	0.134	0.137	0.32	0.0348	0.367
13	SQOR (sulfide quinone oxidoreductase)	0.0984	0.121	0.291	0.0337	0.127
14	NAT9 (N-acetyltransferase 9)	0.179	0.591	0.506	0.0878	0.387
15	DOC2B (double C2 domain beta)	0.109	0.191	0.389	0.0156	0.118
16	MED26 (mediator complex subunit 26)	0.0978	0.253	0.314	0.0401	0.135
17	TLR1 (toll like receptor 1)	0.0819	0.0948	0.528	-0.000338	0.293
18	TRUB2 (TruB pseudouridine synthase family member 2)	0.211	0.124	0.24	0.0298	0.264
19	ZC2HC1C (zinc finger C2HC-type containing 1C)	0.145	0.349	0.397	0.0382	0.167
20	EDNRB (endothelin receptor type B)	0.0809	0.17	0.286	0.0226	0.176
21	AP1G2 (adaptor related protein complex 1 subunit gamma 2)	0.104	0.191	0.261	0.0489	0.292
22	LRRC32 (leucine rich repeat containing 32)	0.179	0.153	0.352	0.0574	0.121
23	RET (ret proto-oncogene)	0.185	0.301	0.514	0.0148	0.455
24	PTPRF (protein tyrosine phosphatase receptor type F)	0.0489	0.123	0.202	0.0131	0.137
25	PNO1 (partner of NOB1 homolog)	0.0769	0.164	0.277	0.0266	0.548
26	CKMT1B (creatine kinase, mitochondrial 1B)	0.191	0.133	0.304	0.0164	0.221
27	NUTF2 (nuclear transport factor 2)	0.0527	0.15	0.238	0.0304	0.075
28	KDM8 (lysine demethylase 8 (putative))	0.149	0.266	0.288	0.0354	0.329
29	SEPHS1 (selenophosphate synthetase 1)	0.23	0.384	0.524	0.0488	0.362
30	NAE1 (NEDD8 activating enzyme E1 subunit 1)	0.108	0.416	0.223	0.0309	0.412
31	ZG16B (zymogen granule protein 16B)	0.168	0.0977	0.507	0.0288	0.305
32	TPSB2 (tryptase beta 2)	0.0911	0.168	0.25	0.0229	0.115
33	CERS1 (ceramide synthase 1)	0.226	0.148	0.246	0.0301	0.257
34	GHITM (growth hormone inducible transmembrane protein)	0.0952	0.221	0.398	0.0135	0.285
35	NOG (noggin)	0.108	0.327	0.264	0.0161	0.154
36	PTK6 (protein tyrosine kinase 6)	0.0568	0.0441	0.349	0.00502	0.0674
37	FOXF2 (forkhead box F2)	0.0773	0.249	0.354	0.0072	0.181
38	ACAD11 (acyl-CoA dehydrogenase family member 11)	0.24	0.147	0.228	0.0609	0.16
39	CYP3A5 (cytochrome P450 family 3 subfamily A member 5)	0.0354	0.279	0.281	0.0249	0.179
40	PLXNA1 (plexin A1)	0.0922	0.0946	0.237	0.0237	0.134
41	RPS21 (ribosomal protein S21)	0.0737	0.098	0.526	0.0171	0.127
42	SHISAL1 (shisa like 1)	0.353	0.663	1.1	0.125	0.309

8 of these entries in another layout:
target,"BNIP3L mRNA, set 1","NDRG1 mRNA, set 1","BNIP3 mRNA, set 1","ALDOC mRNA, set 1","ACSL5 mRNA, set 1"
ELF1 (E74 like ETS transcription factor 1),0.0731,0.0632,0.292,0.00932,0.097
"HELLS (helicase, lymphoid specific)",0.126,0.195,0.362,0.0246,0.209
TH (tyrosine hydroxylase),0.149,0.144,0.268,0.0314,0.13
RBP2 (retinol binding protein 2),0.162,0.213,0.284,0.0626,0.171
ARMC2 (armadillo repeat containing 2),0.307,0.166,0.393,0.113,0.335
S100A11 (S100 calcium binding protein A11),0.111,0.501,0.331,0.0505,0.173
LPXN (leupaxin),0.0618,0.193,0.266,0.0092,0.177
TPD52L1 (TPD52 like 1),0.11,0.0402,0.218,0.019,0.0864

More records follow.
no.	target	BNIP3L mRNA, set 1	NDRG1 mRNA, set 1	BNIP3 mRNA, set 1	ALDOC mRNA, set 1	ACSL5 mRNA, set 1
43	FAM184A (family with sequence similarity 184 member A)	0.17	0.215	0.383	0.0291	0.262
44	LDB2 (LIM domain binding 2)	0.0859	0.319	0.342	0.0187	0.326
45	USP20 (ubiquitin specific peptidase 20)	0.121	0.0784	0.29	0.042	0.101
46	ZNF182 (zinc finger protein 182)	0.166	0.088	0.307	0.0322	0.248
47	SCG2 (secretogranin II)	0.11	0.184	0.407	0.0133	0.419
48	JAGN1 (jagunal vesicle mediated transporter 1)	0.109	0.164	0.344	0.0262	0.156
49	TMEM184B (transmembrane protein 184B)	0.0957	0.103	0.284	0.0195	0.124
50	GPATCH2 (G-patch domain containing 2)	0.144	0.127	0.586	0.0287	0.246
51	C4BPA (complement component 4 binding protein alpha)	0.0992	0.283	0.267	0.0241	0.098
52	FPGS (folylpolyglutamate synthase)	0.0852	0.239	0.24	0.0219	0.104
53	ADAM3A (ADAM metallopeptidase domain 3A (pseudogene))	0.0589	0.156	0.242	0.0104	0.101
54	OR13A1 (olfactory receptor family 13 subfamily A member 1)	0.122	0.131	0.21	0.0284	0.19
55	CAVIN2 (caveolae associated protein 2)	0.106	0.101	0.231	0.00501	0.269
56	HPS3 (HPS3 biogenesis of lysosomal organelles complex 2 subunit 1)	0.387	0.545	0.486	0.0514	0.278
57	PPL (periplakin)	0.0939	0.251	0.243	0.0392	0.214
58	PPP1R9B (protein phosphatase 1 regulatory subunit 9B)	0.0674	0.658	0.213	0.0201	0.4
59	FAM106A (family with sequence similarity 106 member A)	0.181	0.241	0.332	0.0114	0.188
60	BBS1 (Bardet-Biedl syndrome 1)	0.109	0.17	0.313	0.046	0.163
61	TMEM165 (transmembrane protein 165)	0.146	0.884	0.515	0.0224	0.442
62	OR10A5 (olfactory receptor family 10 subfamily A member 5)	0.0787	0.138	0.391	0.0597	0.169
63	OASL (2'-5'-oligoadenylate synthetase like)	0.147	0.183	0.271	0.0352	0.142
